Laboratory results as given in US11578085B2, “Heterocycle-substituted bicyclic azole pesticides” (FMC CORPORATION, priority 2013, dated 2023).
Some results were stated once for a whole list of compounds, not compound by compound.

Tested on: diamondback moth (Plutella xylostella (L.))
Experiment: Test A: control of diamondback moth on mustard plant (spray)
Format: in vivo
Conditions: sprayed at 250 ppm; assessed after 6 days; criterion is 40% or less feeding damage and/or 100% mortality

Structure (SMILES): O=C(NCC(F)(F)F)c1cccc2nn(-c3ccc[n+]([O-])c3)cc12 [Compound 466]
- feeding damage (very good to excellent levels of control efficacy: 40% or less feeding damage and/or 100% mortality): ≤ 40%
